Assay results as given in patent US12667546B2, “Methods for manipulating cell state transitions in cancer” (AGENCY FOR SCIENCE, TECHNOLOGY AND RESEARCH, priority 2018, dated 2026).

Experiments:
[1] = system: NAMEC8-SERPINE1prom-Luc cells; assay: Renilla-luciferase (constitutive CMV promoter) readout for cell numbers; assay type: cell-based, human; settings: primary screen; Renilla as readout for cell numbers; relative to DMSO
[2] = system: SERPINE1prom-Luc reporter in NAMEC8 cells; assay: Dual-Glo luciferase assay of SERPINE1prom-Luc reporter (FF/Ren); assay type: cell-based, human; settings: primary screen; NAMEC8-SERPINE1prom-Luc cells grown 3 days with compound; relative to DMSO
From the text: pGreenFire1-mCMV was cut using ClaI and SpeI and gel purified. Promoter sequences of genes Zeb1, Serpine1, CDH1, CD24, CD44, CD166 were amplified from human genomic DNA with pre-designed primers containing ClaI and SpeI restriction cut sites using AccuPrime Taq DNA Polymerase (Thermo Fisher Scientific). PCR products were then digested with restriction enzymes and gel-purified. Vector was ligated with PCR insert using Quick Ligase (Fermentas) and transformed into Stb12 competent cells. Colonies were picked and inoculated into TB media with ampicillin. Plasmids were then isolated using a plasmid miniprep kit (Qiagen) and sent for sequencing (1 stBASE Laboratories). […]
Stock plates of compound libraries were kindly prepared by GIS CHiP facility at 1 mM concentration in DMSO. […] Cells were then grown for 3 days and promoter-luciferase activity was measured using the Dual-Glo Luciferase System (Promega).
Assay was carried out according to manufacturer's instructions. […] Firefly luciferase activity was determined by adding 30 μl Dual-Glo Luciferase substrate (Promega) to the wells and incubated for 10 min before measuring luminescence using a TECAN M1000 Pro plate reader. 15 μl Dual-Glo Stop & Glo substrate was then added to the wells, incubated for 10 min and measuring luminescence on the plate reader to determine Renilla luciferase activity. […]

Cc1ccccc1-n1c(Cn2nc(-c3cccc(O)c3)c3c(N)ncnc32)nc2cccc(C)c2c1=O [PIK-294]
% Avr Renilla from DMSO [1]: 81.52%
Avr FF/Renilla from DMSO [2]: 0.68
